Reference: PubChem BioAssay AID662 (National Center for Advancing Translational Sciences (NCATS), 2007)
The list shows a part of the results. These are further read-outs of the screen, such as a control signal, another cell line or another target. No call is given for them. The list favours compounds with an active or inconclusive main result. The note in brackets gives the kind of curve behind each potency; many fits are weak.

Test: Cell signaling CRE-BLA (Fsk stim)
Conditions: CHO CRE-bla reporter (cAMP response element driving beta-lactamase), forskolin EC10, beta-lactamase ratio; measured here: 460 nm blue channel
In short: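 Forskolin analogue NKH 477 at EC10 stimulated CRE-driven beta-lactamase in CHO cells alongside compound dilution series. Beta-lactamase was measured with CCF4, excitation 405 nm, emission ratio 460/530 nm.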

| Compound | AC50 |
| --- | --- |
| CCOc1cc(C(=O)OCc2ccc(C(=O)OC)o2)cc(Br)c1OC | 10 µM [rising, single point] |
| CC(=O)N1CCCc2cc(S(=O)(=O)N3CCN(C4CCCCC4)CC3)ccc21 | 3.98 µM [falling, single point] |
| COc1cc(C)c(C(C)C)cc1S(=O)(=O)n1cnc(C)c1 | 10 µM [rising, partial curve] |
| N#Cc1nc(-c2ccccc2F)oc1NC1CCCCC1 | 2.51 µM [rising, full curve] |
| CC(=O)Nc1ccc(NC(=O)CCC(=O)NCCO)cc1 | 0.158 µM [falling, partial curve] |
| O=C(Nc1ccccn1)NC1CCS(=O)(=O)C1 (stereo not given) | 0.316 µM [rising, partial curve] |
| CCOC(=O)C1CCN(C(=O)Nc2ccccc2Cl)CC1 | 0.251 µM [rising, full curve, poor fit] |
| CCn1c(SCC(=O)Nc2ccccc2N2CCCCC2)nc2c1c(=O)n(C)c(=O)n2C | 10 µM [rising, partial curve] |
| CCOC(=O)c1cc(C(=O)c2cc(F)ccc2O)coc1=N | 5.01 µM [falling, single point] |
| Clc1ccc(-c2nnc(SCc3ccon3)o2)c(Cl)c1 | 7.94 µM [rising, partial curve] |
| Cc1nc2cnc(Oc3ccccc3)nc2n(Cc2cccs2)c1=O | 12.6 µM [rising, partial curve] |
| CCOC(=O)c1cc(-c2nnc(SCC(=O)Nc3ccc(F)cc3)o2)c(C)nc1C | 5.01 µM [falling, single point] |
| COC(=O)c1c(NC(C)=O)sc2c1CCCC2 | 12.6 µM [rising, single point] |
| COn1c(SCc2cccnc2)nc2ccccc2c1=O | 10 µM [rising, single point] |
| O=C(CSc1ncn[nH]1)NCCCc1ccccc1 | 25.1 µM [falling, single point] |
| CCc1c(C(=O)Nc2ccc(S(=O)(=O)N3CCOCC3)cc2)csc1C | 3.98 µM [falling, full curve, poor fit] |
| COCCCn1c2nc3ccccc3nc2c2c(=O)n(-c3ccccc3OC)cnc21 | 10 µM [rising, partial curve] |
| O=C(O)CCN1Cc2ccccc2C1=O | 3.16 µM [falling, single point] |
| Cc1ccccc1CS(=O)(=O)Cc1ccc(C(=O)NCC2CCCO2)o1 (stereo not given) | 0.01 µM [falling, full curve, poor fit] |
| COc1cccc(-c2cc(C(=O)NC3CCCC3)no2)c1 | 0.0631 µM [falling, full curve] |

For reference, part of the list above.

| Compound | AC50 |
| --- | --- |
| CCOC(=O)c1cc(-c2nnc(SCC(=O)Nc3ccc(F)cc3)o2)c(C)nc1C | 5.01 µM [falling, single point] |
| COC(=O)c1c(NC(C)=O)sc2c1CCCC2 | 12.6 µM [rising, single point] |
